These are yes or no findings as the source states them, for the method shown. In cells and extracts the contact can be indirect. Some results given as binding are weak or reduced against the parent protein; the word gives no strength.
Legend:
[1] = target: FLAG-IFITM3 G95L (human) (UniProt Q01628); experiment: proximity ligation; HEK293T transiently transfected with FLAG-IFITM1 WT and FLAG-IFITM3 WT or G95L, fixed and permeabilized; anti-IFITM1 and anti-IFITM3; confocal microscopy
[2] = target: FLAG-IFITM3 WT (human) (UniProt Q01628); experiment: as above
[3] = target: endogenous IFITM3 (human (endogenous in HEK293T, primary human nasal epithelial cells and HeLa)) (UniProt Q01628); experiment: co-IP; anti-IFITM3 immunoprecipitation from whole cell lysates of HeLa untreated or treated with 100 units IFNb for 18 hours; immunoblot with anti-IFITM1
[4] = target: endogenous IFITM3 (human (endogenous in HEK293T, primary human nasal epithelial cells and HeLa)) (UniProt Q01628); experiment: proximity ligation; HeLa and HeLa IFITM3 knockout cells, fixed and permeabilized; endogenous proteins; anti-IFITM1 and anti-IFITM3
[5] = target: endogenous IFITM3 (human (endogenous in HEK293T, primary human nasal epithelial cells and HeLa)) (UniProt Q01628); experiment: co-IP; anti-IFITM3 immunoprecipitation from whole cell lysates of HEK293T treated with 100 units IFNb for 18 hours; immunoblot with anti-IFITM1
[6] = target: endogenous IFITM3 (human (endogenous in HEK293T, primary human nasal epithelial cells and HeLa)) (UniProt Q01628); experiment: co-IP; anti-IFITM3 immunoprecipitation from whole cell lysates of primary human nasal epithelial cells untreated or treated with 100 units IFNb for 18 hours; immunoblot with anti-IFITM1
[7] = target: endogenous IFITM3 (human (endogenous in HEK293T, primary human nasal epithelial cells and HeLa)) (UniProt Q01628); experiment: proximity ligation; HEK293T untreated or treated with 100 units IFNb for 18 hours, fixed and permeabilized; endogenous proteins; anti-IFITM1 and anti-IFITM3
[8] = target: endogenous IFITM2 (human (endogenous in HeLa)) (UniProt Q01629); experiment: co-IP; anti-IFITM2 immunoprecipitation from whole cell lysates of HeLa untreated or treated with 100 or 500 units IFNb for 18 hours; immunoblot with anti-IFITM1 and anti-IFITM3
[9] = target: FLAG-IFITM3 G95L (human) (UniProt Q01628); experiment: co-IP; anti-FLAG immunoprecipitation from whole cell lysates of HEK293T stably expressing FLAG-IFITM3 WT or G95L; Dynabeads Protein G, 4°C; immunoblot with anti-IFITM1
[10] = target: FLAG-IFITM3 WT (human) (UniProt Q01628); experiment: as above

Chains of the proteins cited; added tags and fusions are not shown. Lines headed by an entry give the natural chain unless they say otherwise; changes in a name come on top.
UniProt Q01628: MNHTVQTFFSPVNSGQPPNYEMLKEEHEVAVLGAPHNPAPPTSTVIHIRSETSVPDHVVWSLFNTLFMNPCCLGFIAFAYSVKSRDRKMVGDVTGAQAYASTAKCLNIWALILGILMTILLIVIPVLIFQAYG
UniProt Q01629: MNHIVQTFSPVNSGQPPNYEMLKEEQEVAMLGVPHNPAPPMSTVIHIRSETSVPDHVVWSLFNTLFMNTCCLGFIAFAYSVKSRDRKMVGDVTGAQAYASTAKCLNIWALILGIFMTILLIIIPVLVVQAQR
UniProt P13164: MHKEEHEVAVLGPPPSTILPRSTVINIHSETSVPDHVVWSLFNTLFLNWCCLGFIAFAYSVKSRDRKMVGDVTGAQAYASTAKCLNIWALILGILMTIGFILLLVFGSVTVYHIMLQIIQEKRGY

Measured: binding

FLAG-IFITM1 WT (from UniProt P13164 1-125)
binds: [1] | [2]

endogenous IFITM1 (from UniProt P13164 1-125)
not listed: [1] | [2]
binds: all other assays above

endogenous IFITM3 (from UniProt Q01628 1-133)
binds: [8]
